# Reference: publication PMC9655037, “Alternation of Organ-Specific Exposure in LPS-Induced Pneumonia Mice after the Inhalation of Tetrandrine Is Governed by Metabolizing Enzyme Suppression and Lysosomal Trapping” (International Journal of Molecular Sciences, 2022)
# Chains of the proteins cited; added tags and fusions are not shown.
# UniProt P08183, whole entry: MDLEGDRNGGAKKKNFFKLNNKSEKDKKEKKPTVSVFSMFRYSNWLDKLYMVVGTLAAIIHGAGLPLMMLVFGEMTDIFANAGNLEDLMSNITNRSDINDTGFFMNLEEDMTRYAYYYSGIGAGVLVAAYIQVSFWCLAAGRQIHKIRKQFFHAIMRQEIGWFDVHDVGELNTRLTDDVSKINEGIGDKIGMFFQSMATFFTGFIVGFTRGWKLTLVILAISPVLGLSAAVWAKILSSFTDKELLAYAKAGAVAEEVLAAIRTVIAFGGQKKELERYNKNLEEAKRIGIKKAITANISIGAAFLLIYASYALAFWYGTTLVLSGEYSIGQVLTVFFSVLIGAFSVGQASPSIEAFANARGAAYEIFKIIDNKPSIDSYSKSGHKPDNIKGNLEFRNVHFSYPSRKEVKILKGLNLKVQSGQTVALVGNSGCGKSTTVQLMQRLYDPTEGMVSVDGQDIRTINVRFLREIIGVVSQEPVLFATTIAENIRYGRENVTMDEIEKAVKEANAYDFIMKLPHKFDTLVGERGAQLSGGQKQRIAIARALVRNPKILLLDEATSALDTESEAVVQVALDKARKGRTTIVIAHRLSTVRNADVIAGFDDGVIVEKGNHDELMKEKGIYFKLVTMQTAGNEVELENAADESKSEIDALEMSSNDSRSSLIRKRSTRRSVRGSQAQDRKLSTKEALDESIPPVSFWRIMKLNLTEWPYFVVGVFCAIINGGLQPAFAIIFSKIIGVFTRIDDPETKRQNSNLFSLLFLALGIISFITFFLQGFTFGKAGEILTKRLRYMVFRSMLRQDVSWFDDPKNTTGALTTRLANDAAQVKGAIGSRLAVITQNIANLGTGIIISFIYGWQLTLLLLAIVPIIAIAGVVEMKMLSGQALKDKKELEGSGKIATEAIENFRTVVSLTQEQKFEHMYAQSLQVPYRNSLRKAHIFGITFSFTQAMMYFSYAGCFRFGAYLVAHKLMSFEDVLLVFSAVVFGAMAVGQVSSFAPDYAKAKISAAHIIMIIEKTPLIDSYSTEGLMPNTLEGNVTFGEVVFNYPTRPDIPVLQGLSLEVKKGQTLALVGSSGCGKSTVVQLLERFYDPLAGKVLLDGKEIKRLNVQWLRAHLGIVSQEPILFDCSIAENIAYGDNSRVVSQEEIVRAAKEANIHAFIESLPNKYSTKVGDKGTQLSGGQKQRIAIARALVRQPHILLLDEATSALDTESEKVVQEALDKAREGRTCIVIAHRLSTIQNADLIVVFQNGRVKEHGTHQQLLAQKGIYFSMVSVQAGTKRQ
# How the values were obtained:
# MDR1 (P-gp) = MDR1 (P-gp) (Homo sapiens, UniProt P08183); assay: Bidirectional transport in MDR1-transfected LLC-PK1 cells
# Protocol: (§1) MDR1 expressing LLC-PK1 cells or MOCK LLC-PK1 cells were utilized to identify whether P-gp is involved in the efflux transport across the membrane barrier. Cells were cultured as described above. Cells were seeded at a density of 2 × 10^4 in Millicell® 24-well cell culture plates with a 6.5 mm insert (0.4 µm polycarbonate membrane) from Corning (Kennebunk, ME, USA) 7 days before the experiments. On the day of the experiment, transepithelial electrical resistance (TEER) was measured to assess monolayer integrity. After washing the cells twice with HBSS, transport experiments in either the apical-to-basolateral direction (A-B) or the basolateral-to-apical direction (B-A) were conducted. […] After incubating the plates at 37 °C for 2 h, samples from the receiving and donor wells (50 μL) were taken simultaneously. All the samples were stored at −40 °C for LC-MS/MS analysis.
# (§2) In the bidirectional transport study in LLC-PK1 cells, the following equations were used to calculate Papp values and the MDR1 efflux ratio.
# [1] = Bidirectional transport in MOCK LLC-PK1 cells; details: pig
# Protocol: as §1, §2
smiles,measurement,setting,value
"CC(C)NCC(O)COc1ccc(CC(N)=O)cc1 (stereo not drawn) [Atenolol, atenolol]",Papp A→B at 2 h,MDR1 (P-gp),1.23 ± 0.08 ×10⁻⁶ cm/s
same,efflux ratio at 2 h,"MDR1 (P-gp); human, LLC-PK1",0.84
same,Papp B→A at 2 h,[1],0.12 ± 0.01 ×10⁻⁶ cm/s
